Structures are written as SMILES. The list shows a part of the results. Further columns of the screen follow, without active or inactive calls. Most of these compounds were active or inconclusive in the main read-out, so they are no random draw. The note in brackets gives the kind of curve behind each potency; many fits are weak.

This assay can be described thus: qHTS Assay to Find Inhibitors of Chronic Active B-Cell Receptor Signaling. Particulars: ABC-DLBCL IkBa-CBG/CBR reporter, luminescence ratio (green luciferase fused to IkBa over red control in TMD8 lymphoma cells), 4 h. The essentials: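 Compounds up to 46 uM were incubated four hours with TMD8 cells whose green CBG68 luciferase is fused to IkappaBalpha; red CBR luminescence normalised the signal, and concentration-effect curves were fitted to fusion, red and ratio data.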
For orientation: In qHTS, concentration-response curves come from the screen itself.

[1] abbreviates: measured here: CBR red luminescence, cell number.

Regarding `O=C(COC(=O)c1ncc(Cl)c(Cl)c1Cl)Nc1ccccc1OC(F)F`, the half-maximal activity concentration (AC50) under setting [1] was 29.1 µM [falling, single point].

With `O=C(NCCc1ccccc1F)N[C@@H](Cc1ccccc1)C(=O)O`, under setting [1], the half-maximal activity concentration (AC50) is 35.5 µM [rising, single point].

As for `CCc1ccc2oc(-c3cc(N)cc(C)c3O)nc2c1`, the AC50 under setting [1] was 29.1 µM [falling, single point].

On to `CCN(CC)c1ccc(/C=N/n2c(C)cc(C)cc2=O)cc1`, for which the AC50 under setting [1] is 6.31 µM [rising, single point].

With `c1ccc(-c2nc3cc4ccccc4cc3[nH]2)nc1`, under setting [1], the concentration at half-maximal activity (AC50) was 4.61 µM [falling, full curve].

In the case of `COc1ccc(S(=O)(=O)CCC(=O)Nc2c(C)n(C)n(-c3ccccc3)c2=O)cc1`, the AC50 under setting [1] was 3.66 µM [rising, partial curve, poor fit].

Regarding `CCOc1ccccc1/C=N/NC(=O)c1cccc(Cl)c1`, the AC50 under setting [1] is 3.26 µM [rising, partial curve].

Regarding `O=C(Nc1ccc(-c2nnc3n2CCCCC3)cc1)c1cc2ccccc2o1`, under setting [1], the AC50 was 20.6 µM [falling, single point].

Take `CC1=CC(C)(C)N=C(NC#N)N1`: the concentration at half-maximal activity (AC50) under setting [1] is 13 µM [rising, partial curve, poor fit].

For the molecule `Clc1ccccc1-c1csc(Nc2cccnc2)n1`, the AC50 under setting [1] is 2 µM [rising, full curve].

On to `CCC(=O)NC(Nc1c(C)n(C)n(-c2ccccc2)c1=O)C(Cl)(Cl)Cl` (centres undefined), for which the half-maximal activity concentration (AC50) under setting [1] is 0.708 µM [rising, full curve, poor fit].

Turning to `CC(Oc1ccc(Cl)cc1Cl)C(=O)/C=C/N(C)C` (centres undefined), under setting [1], the half-maximal activity concentration (AC50) was 15.8 µM [rising, single point].

For `Cc1c(N2C(=O)C(=O)/C(=C(/O)c3ccc(Cl)cc3)C2c2ccccc2)c(=O)n(-c2ccccc2)n1C` (centres undefined), the half-maximal activity concentration (AC50) under setting [1] is 6.51 µM [rising, single point].

`CCc1nc(SCc2ccc(OCC(C)C)cc2)n[nH]1`: the half-maximal activity concentration (AC50) under setting [1] was 3.16 µM [rising, partial curve, poor fit].

As to `CS(=O)(=O)N(CC(=O)Nc1ccccc1C(=O)NCCc1ccccc1)c1ccc2c(c1)OCCO2`, the AC50 under setting [1] is 6.51 µM [rising, single point].

As for `O=C(/C=C/c1cc([N+](=O)[O-])ccc1OC(F)F)Nc1cccc([N+](=O)[O-])c1`, under setting [1], the AC50 is 35.5 µM [rising, single point].

On to `CCOc1ccccc1NC(=O)CN1c2cccc3cccc(c23)S1(=O)=O`, for which the half-maximal activity concentration (AC50) under setting [1] was 4.11 µM [falling, full curve] and the AC50 (measured here: IkBa-CBG green luminescence) is 20.6 µM [falling, partial curve, poor fit].

In the case of `O=C(CCCN1C(=O)/C(=C/c2ccc(F)cc2)SC1=S)NC1CCS(=O)(=O)C1` (centres undefined), the AC50 under setting [1] was 3.98 µM [falling, partial curve].

What is called AC50 is the midpoint of the concentration-response curve, whichever way the signal moves.

Values taken from PubChem BioAssay AID493014 (National Center for Advancing Translational Sciences (NCATS), 2011).
